Experimental data reported in article PMC6912275.
These are yes or no findings as the source states them, for the method shown. In cells and extracts the contact can be indirect. Some entries that bind do so weakly or less than the wild type.

Amino acid sequences for entries named in this document (tags omitted). A change or cut given only in a name is not applied to a line headed by its entry. Chains listed by the source or under a name are the forms on record and can include a tag or linker.
UniProt O95622: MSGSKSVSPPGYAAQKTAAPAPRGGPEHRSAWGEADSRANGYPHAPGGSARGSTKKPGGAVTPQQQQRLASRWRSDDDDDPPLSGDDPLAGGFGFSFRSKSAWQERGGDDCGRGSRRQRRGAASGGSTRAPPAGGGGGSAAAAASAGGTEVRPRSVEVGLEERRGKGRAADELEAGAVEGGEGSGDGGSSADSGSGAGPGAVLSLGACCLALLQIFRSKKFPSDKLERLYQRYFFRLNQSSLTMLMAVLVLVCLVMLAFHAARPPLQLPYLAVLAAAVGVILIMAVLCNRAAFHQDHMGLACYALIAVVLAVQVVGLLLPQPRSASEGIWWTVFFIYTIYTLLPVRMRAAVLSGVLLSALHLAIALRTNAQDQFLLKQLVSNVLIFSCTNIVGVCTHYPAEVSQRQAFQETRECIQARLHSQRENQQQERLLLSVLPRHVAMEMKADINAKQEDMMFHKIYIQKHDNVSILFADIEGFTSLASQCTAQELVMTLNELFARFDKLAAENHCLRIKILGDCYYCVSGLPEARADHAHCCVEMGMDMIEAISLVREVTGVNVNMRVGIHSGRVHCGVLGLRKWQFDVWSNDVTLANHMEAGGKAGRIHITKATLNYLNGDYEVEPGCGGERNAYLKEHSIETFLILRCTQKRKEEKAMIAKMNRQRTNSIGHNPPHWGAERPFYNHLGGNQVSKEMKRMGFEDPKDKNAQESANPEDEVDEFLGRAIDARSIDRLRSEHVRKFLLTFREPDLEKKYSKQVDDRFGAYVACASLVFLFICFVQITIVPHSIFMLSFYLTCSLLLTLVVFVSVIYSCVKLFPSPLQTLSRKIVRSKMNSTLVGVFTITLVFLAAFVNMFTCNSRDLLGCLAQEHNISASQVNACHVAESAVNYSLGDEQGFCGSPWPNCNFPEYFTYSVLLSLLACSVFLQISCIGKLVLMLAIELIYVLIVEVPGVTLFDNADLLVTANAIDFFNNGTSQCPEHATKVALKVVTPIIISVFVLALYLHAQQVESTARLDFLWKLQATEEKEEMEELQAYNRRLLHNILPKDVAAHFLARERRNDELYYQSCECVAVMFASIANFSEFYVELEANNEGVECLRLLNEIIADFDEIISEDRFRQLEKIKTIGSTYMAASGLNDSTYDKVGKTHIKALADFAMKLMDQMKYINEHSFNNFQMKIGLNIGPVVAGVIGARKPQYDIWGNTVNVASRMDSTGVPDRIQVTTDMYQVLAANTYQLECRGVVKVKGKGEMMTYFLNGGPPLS
UniProt P24588: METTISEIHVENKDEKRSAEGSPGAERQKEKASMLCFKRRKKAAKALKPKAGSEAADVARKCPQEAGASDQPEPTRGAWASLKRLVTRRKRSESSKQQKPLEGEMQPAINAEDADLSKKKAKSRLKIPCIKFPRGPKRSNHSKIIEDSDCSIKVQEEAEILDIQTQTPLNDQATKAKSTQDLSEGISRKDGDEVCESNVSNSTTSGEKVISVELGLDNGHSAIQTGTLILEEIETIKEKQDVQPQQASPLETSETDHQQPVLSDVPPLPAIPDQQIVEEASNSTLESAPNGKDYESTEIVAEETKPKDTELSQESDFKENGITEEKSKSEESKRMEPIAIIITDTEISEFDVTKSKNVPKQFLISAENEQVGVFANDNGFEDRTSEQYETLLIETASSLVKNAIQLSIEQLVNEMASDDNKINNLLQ
AKAP79^77–108-VC (P24588, form named): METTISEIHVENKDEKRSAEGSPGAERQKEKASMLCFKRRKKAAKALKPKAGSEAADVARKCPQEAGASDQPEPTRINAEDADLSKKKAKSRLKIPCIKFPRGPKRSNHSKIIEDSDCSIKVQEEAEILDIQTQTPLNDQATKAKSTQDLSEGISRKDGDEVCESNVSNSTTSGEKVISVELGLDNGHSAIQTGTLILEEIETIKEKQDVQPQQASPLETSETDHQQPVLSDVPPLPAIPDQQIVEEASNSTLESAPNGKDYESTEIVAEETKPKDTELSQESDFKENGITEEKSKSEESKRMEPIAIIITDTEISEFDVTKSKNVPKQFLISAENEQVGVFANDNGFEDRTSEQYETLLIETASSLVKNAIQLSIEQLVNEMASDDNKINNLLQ

Experiments:
[1] = target: T1, Endogenous NAPA (human (endogenous in HEK 293)) (UniProt P54920); assay: condition: only cells treated with vehicle, without quinpirole; co-IP; endogenous NAPA immunoprecipitated from lysate of HEK AC5/D2L cells treated overnight with vehicle (no quinpirole); AC activity measured in the immunoprecipitate
T1 sequence: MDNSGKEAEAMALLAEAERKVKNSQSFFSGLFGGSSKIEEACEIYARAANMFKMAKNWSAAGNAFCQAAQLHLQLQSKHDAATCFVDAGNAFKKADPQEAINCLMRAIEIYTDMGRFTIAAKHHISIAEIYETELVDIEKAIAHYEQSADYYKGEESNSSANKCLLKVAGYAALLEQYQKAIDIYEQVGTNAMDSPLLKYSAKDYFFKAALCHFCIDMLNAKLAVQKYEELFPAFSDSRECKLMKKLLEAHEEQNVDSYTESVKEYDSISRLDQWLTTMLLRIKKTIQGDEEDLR

[2] = target: human AC5 linked by the N-terminus to the N-terminal BiFC fragment of the Venus fluorescent protein (VN155-AC5) (human) (UniProt O95622); assay: split reporter; BiFC (Venus VN155 + VC155) in living CAD VN-AC5/D2L cells transfected with 1 μg of VC plasmid; confocal images 48 h after transfection, line profile analysis

Row | Substance | binding [1] | binding [2]
1 | human AC type 5 (in HEK-AC5/D2L cells) (from UniProt O95622 1-1261) (enzyme) | no binding | 
2 | AKAP79-VC (from UniProt P24588 1-427) |  | binds
3 | AKAP79^77–108-VC (from UniProt P24588 1-427) |  | no binding
